Measurements taken from article PMC6053349.
These are yes or no findings as the source states them, for the method shown. In cells and extracts the contact can be indirect. Some results given as binding are weak or reduced against the parent protein; the word gives no strength. For some of these results: Sequences can lack the tags named with a protein.

Amino acid sequences for entries named in this document (tags omitted).
UniProt O00429: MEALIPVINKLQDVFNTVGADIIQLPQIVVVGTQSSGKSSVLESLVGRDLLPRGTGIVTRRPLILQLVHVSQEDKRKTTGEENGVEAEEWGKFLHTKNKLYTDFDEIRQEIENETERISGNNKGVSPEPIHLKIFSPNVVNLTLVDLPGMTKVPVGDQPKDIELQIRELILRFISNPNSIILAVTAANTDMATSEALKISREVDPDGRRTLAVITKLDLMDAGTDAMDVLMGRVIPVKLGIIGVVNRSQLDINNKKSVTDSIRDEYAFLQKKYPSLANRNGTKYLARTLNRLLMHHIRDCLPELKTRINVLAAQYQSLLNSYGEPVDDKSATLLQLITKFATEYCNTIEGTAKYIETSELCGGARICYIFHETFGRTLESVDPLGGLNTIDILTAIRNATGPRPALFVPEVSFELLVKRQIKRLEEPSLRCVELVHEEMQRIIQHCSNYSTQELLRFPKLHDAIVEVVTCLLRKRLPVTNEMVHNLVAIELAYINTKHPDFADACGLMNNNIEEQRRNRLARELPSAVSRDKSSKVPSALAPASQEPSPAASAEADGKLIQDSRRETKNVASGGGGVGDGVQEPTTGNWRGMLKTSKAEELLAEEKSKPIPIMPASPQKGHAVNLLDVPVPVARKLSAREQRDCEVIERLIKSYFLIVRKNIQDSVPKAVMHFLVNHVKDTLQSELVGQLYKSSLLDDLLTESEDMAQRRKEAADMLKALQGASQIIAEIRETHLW

Tests used:
[1] = biological target: T1, endogenous Trak1 (human (endogenous in HeLa)) (UniProt Q9UPV9); experiment: co-IP; HeLa cell lysates (50 mmol/L Tris-HCl pH 7.6, 100 mmol/L NaCl, 1% IGEPAL CA-630, 0.1% Triton-X-100) immunoprecipitated with anti-Trak1 antibody or rabbit IgG control, 4 h at 4°C, protein G-Sepharose; immunoblot for Trak1, Mfn1, Mfn2, Drp1
T1 sequence: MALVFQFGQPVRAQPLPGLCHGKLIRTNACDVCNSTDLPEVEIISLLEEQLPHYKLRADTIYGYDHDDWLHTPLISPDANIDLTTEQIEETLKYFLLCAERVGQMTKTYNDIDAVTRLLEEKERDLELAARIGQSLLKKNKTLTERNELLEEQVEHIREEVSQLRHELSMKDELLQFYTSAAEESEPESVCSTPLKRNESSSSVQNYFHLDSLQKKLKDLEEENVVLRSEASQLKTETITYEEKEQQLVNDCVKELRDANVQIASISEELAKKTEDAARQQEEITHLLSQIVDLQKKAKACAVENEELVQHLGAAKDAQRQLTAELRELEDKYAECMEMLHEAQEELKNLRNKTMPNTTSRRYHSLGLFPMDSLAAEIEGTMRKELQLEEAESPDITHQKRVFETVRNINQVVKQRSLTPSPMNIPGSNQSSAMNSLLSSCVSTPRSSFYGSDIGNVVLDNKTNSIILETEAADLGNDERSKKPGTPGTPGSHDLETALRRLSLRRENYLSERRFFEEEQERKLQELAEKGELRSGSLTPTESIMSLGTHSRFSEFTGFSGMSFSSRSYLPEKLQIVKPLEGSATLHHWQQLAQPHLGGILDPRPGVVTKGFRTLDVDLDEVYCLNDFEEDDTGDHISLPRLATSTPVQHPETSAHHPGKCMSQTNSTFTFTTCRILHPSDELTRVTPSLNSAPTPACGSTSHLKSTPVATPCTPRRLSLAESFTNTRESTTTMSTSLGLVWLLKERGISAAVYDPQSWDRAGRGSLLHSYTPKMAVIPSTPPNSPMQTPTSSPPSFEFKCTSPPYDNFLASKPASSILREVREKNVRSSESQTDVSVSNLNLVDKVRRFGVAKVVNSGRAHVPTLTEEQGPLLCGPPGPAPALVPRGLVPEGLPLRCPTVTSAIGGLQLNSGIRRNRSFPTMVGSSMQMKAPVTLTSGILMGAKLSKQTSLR

Myc-tagged Mfn1 = biological target: T2, Myc-tagged Mfn1 (UniProt Q811U4); experiment: co-IP; lysates of shTrak1 HeLa cells co-transfected with GFP-tagged and Myc-tagged constructs; immunoprecipitation with anti-Myc (9E10), 4 h at 4°C, protein G-Sepharose; immunoblot with anti-Myc and anti-GFP
T2 sequence: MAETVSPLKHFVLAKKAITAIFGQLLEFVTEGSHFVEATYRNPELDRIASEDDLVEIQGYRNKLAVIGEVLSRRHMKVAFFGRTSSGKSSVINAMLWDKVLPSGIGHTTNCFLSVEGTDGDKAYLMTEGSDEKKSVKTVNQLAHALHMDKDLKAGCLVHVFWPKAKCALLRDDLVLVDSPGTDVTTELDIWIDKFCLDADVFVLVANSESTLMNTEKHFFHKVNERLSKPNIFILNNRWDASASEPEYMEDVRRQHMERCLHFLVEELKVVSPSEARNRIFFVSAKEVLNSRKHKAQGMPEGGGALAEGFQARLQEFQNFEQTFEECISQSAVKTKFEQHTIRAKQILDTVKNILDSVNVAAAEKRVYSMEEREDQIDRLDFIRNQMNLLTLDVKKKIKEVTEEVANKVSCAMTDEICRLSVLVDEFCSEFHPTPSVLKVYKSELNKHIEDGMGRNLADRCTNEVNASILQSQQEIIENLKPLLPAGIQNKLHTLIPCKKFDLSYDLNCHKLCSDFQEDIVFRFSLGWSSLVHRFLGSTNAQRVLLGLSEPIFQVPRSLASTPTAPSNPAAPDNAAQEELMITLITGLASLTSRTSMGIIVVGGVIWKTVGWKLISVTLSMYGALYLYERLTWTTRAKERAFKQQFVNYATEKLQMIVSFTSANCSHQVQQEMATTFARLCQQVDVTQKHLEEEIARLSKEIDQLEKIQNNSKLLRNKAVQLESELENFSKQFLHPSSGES

Myc-tagged Mfn2 = biological target: T3, Myc-tagged Mfn2 (UniProt Q80U63); experiment: as above
T3 sequence: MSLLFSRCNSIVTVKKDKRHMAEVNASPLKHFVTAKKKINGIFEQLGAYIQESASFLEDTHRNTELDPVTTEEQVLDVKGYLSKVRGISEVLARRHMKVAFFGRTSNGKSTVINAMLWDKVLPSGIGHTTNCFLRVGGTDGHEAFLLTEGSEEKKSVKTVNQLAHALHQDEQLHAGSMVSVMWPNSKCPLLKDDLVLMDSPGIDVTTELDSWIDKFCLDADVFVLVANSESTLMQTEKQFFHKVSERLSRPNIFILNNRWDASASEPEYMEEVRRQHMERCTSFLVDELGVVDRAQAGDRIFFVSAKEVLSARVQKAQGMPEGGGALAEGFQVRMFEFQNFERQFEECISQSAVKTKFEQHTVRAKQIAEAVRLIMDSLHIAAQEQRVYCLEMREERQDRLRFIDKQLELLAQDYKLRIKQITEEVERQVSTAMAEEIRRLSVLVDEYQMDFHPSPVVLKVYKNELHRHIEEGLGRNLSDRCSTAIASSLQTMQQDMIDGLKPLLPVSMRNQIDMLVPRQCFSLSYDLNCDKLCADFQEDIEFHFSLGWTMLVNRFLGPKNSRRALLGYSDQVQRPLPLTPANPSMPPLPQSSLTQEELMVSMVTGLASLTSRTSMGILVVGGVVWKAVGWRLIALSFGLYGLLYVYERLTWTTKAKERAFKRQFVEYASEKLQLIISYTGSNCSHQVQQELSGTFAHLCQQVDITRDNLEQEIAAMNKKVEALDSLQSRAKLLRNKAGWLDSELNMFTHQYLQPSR

[2] = biological target: GFP-tagged human Trak1 hyrt (residues 1-824) (human) (UniProt Q9UPV9); experiment: co-IP; lysates of shTrak1 HeLa cells co-transfected with GFP-tagged and HA-tagged Trak1 constructs; immunoprecipitation with anti-HA; immunoblot with anti-HA and anti-GFP

Molecule | binding [1] | binding (Myc-tagged Mfn1) | binding (Myc-tagged Mfn2) | binding [2]
endogenous dynamin-related protein 1 (Drp1) (from UniProt O00429 1-736) | no binding |  |  | 
GFP-tagged human Trak1 hyrt (residues 1-824) (domain or fragment, UniProt Q9UPV9 1-824) MALVFQFGQPVRAQPLPGLCHGKLIRTNACDVCNSTDLPEVEIISLLEEQLPHYKLRADTIYGYDHDDWLHTPLISPDANIDLTTEQIEETLKYFLLCAERVGQMTKTYNDIDAVTRLLEEKERDLELAARIGQSLLKKNKTLTERNELLEEQVEHIREEVSQLRHELSMKDELLQFYTSAAEESEPESVCSTPLKRNESSSSVQNYFHLDSLQKKLKDLEEENVVLRSEASQLKTETITYEEKEQQLVNDCVKELRDANVQIASISEELAKKTEDAARQQEEITHLLSQIVDLQKKAKACAVENEELVQHLGAAKDAQRQLTAELRELEDKYAECMEMLHEAQEELKNLRNKTMPNTTSRRYHSLGLFPMDSLAAEIEGTMRKELQLEEAESPDITHQKRVFETVRNINQVVKQRSLTPSPMNIPGSNQSSAMNSLLSSCVSTPRSSFYGSDIGNVVLDNKTNSIILETEAADLGNDERSKKPGTPGTPGSHDLETALRRLSLRRENYLSERRFFEEEQERKLQELAEKGELRSGSLTPTESIMSLGTHSRFSEFTGFSGMSFSSRSYLPEKLQIVKPLEGSATLHHWQQLAQPHLGGILDPRPGVVTKGFRTLDVDLDEVYCLNDFEEDDTGDHISLPRLATSTPVQHPETSAHHPGKCMSQTNSTFTFTTCRILHPSDELTRVTPSLNSAPTPACGSTSHLKSTPVATPCTPRRLSLAESFTNTRESTTTMSTSLGLVWLLKERGISAAVYDPQSWDRAGRGSLLHSYTPKMAVIPSTPPNSPMQTPTSSPPSFEFKCTSPPYDNFLASKPASSILREVRE |  | binds | binds | binds
